From PMC10449828, “Fanconi anemia associated protein 20 (FAAP20) plays an essential role in homology-directed repair of DNA double-strand breaks”
These are yes or no findings as the source states them, for the method shown. Binding seen in cells or lysates may run through a third protein. Some binding calls cover weakened binding; strength is not graded here.

Protein sequences, listed by entry. Tags and fused reporters are not part of them.
UniProt Q06609: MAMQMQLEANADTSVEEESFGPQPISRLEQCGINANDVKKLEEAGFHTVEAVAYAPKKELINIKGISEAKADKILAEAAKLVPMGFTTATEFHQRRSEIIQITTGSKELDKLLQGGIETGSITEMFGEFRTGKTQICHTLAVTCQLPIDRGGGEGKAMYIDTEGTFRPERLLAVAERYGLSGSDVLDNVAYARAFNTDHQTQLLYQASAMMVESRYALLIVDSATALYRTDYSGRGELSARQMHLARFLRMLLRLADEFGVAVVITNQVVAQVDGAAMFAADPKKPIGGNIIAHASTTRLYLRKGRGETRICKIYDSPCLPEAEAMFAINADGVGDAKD
UniProt Q12888: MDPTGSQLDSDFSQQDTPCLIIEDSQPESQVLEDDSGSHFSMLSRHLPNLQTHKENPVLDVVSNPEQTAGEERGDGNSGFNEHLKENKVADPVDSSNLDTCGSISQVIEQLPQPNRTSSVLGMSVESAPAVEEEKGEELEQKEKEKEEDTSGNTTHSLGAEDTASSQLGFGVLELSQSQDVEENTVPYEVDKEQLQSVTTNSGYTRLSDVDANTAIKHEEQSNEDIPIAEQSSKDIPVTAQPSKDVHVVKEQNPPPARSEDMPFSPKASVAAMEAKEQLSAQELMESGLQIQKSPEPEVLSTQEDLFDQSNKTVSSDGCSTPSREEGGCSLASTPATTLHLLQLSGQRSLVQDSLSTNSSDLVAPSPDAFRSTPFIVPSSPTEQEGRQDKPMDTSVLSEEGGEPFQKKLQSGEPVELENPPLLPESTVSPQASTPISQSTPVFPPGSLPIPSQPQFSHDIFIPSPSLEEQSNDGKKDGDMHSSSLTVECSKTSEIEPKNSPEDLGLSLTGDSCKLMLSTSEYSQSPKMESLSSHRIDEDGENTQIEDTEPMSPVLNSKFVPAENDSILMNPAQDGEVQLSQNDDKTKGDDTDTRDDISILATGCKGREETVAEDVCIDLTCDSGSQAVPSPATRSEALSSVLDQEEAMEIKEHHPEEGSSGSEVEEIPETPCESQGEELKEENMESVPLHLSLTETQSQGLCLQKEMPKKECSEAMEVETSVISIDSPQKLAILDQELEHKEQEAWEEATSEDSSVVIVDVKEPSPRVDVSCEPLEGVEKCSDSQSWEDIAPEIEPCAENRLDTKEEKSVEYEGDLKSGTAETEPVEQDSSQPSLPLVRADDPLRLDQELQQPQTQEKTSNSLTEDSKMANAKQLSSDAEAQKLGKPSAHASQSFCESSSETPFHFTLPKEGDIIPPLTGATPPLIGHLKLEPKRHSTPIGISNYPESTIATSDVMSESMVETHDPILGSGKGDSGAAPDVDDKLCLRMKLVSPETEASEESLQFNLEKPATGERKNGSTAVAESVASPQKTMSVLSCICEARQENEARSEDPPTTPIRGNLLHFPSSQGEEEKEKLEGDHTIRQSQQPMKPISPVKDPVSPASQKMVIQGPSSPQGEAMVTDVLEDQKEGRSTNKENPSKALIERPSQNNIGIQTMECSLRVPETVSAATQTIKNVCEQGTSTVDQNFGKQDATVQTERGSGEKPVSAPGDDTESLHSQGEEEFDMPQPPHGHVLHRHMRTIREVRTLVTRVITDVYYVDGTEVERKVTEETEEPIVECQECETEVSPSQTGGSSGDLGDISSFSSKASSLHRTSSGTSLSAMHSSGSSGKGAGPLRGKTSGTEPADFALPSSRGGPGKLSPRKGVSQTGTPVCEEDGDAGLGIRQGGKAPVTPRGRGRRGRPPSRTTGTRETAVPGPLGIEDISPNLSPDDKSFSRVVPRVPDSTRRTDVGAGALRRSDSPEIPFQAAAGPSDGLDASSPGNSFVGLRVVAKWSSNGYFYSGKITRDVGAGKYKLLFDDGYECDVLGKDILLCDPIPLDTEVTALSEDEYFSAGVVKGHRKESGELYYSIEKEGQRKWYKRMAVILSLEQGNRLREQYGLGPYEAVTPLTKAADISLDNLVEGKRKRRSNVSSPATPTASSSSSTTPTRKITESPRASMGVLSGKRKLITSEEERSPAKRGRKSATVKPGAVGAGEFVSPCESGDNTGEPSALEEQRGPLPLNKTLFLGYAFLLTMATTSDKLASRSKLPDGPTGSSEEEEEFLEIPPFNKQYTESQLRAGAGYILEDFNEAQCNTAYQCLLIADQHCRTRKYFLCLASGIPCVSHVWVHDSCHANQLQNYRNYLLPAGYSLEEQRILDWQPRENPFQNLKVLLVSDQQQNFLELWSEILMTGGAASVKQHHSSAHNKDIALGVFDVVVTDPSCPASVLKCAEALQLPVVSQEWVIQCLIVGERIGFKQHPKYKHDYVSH

Target: RAD51 (human (endogenous in HEK293t)) (UniProt Q06609)
Experiment: co-IP; anti-RAD51 IgG (rabbit IgG isotype control) on HEK293t whole-cell extracts 48 h after FAAP20 overexpression, 500 ug protein/sample, extracts treated with micrococcal nuclease 1 h, antibody overnight at 4 C, Protein A magnetic beads, Western blot

binding	Molecule
no binding	53BP1 (from UniProt Q12888 1-1972)
binds	Fanconi anemia associated protein 20 (FAAP20) (protein, UniProt Q6NZ36 1-180) MEAARRPRLGLSRRRPRPAGGPSGGRPWFLLGGDERERLWAELLRTVSPELILDHEVPSLPAFPGQEPRCGPEPTEVFTVGPKTFSWTPFPPDLWGPGRSYRLLHGAGGHLESPARSLPQRPAPDPCRAPRVEQQPSVEGAAALRSCPMCQKEFAPRLTQLDVDSHLAQCLAESTEDVTW
